Assay results

Source: PubChem BioAssay AID1159506 (NCATS, 2015).

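Luminescence from an EWS-FLI1 target-promoter (NR0B1) reporter, set against a CMV-promoter reporter, two days after silencing single genes in TC32 Ewing sarcoma cells.
Each siRNA was applied at 20 nM.
A z-score of the log NR0B1-over-CMV signal, less the median of siRNAs with the same seed; more negative means a stronger specific loss of the NR0B1 reporter.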

This is part of the screen; most of the strongest results are not listed here.
Sequences are the guide (antisense) strand, without overhang.

siRNA,target gene,seed-corrected z-score
UUUGCAUGCCGCAAGGUUG,PRSS57,-0.109
UUGAAUACCAGUUCUCUUU,EIF1AX,0.2491
UUGCUAUCAAUGAAUUGCC,MYH2,-0.817
UCUAAAGCAAAGUAUCAGC,TCEAL3,0.2585
AUUUCUGUCAAAGAGGUGG,VAT1L,-0.7851
UCCCGGAAGACAUAGAUGC,KBTBD4,-0.493
UCAGAUUUGGGUUGCACCC,SPRY2,0.3983
UCAAUCCCAAUGGUUGCCU,RAB6B,-0.3388
UGUCAUUAAUAGUACAGCC,COQ2,-0.4021
UGAGGAGGUAUGACAAACC,KIAA1522,-1.576
UGUUCUAUCAUUGACGUGC,LRRIQ4,-0.2399
UUAAGAACUGUCACAAUGG,OR5H2,0.7457
UAAUUUAUGAGUCUGUUCC,C17orf100,0.08689
UCAUGGACAGCCGAGAAGC,CLCNKB,0.3407
UUAUUUUACCUGAAUCAUC,CETN3,-0.7137
AUUGUAGCAGAUCAUGCCC,GSTM1,-1.837
UUUGGAAAACCGUUCCUGC,H2AFY,1.161
UCACGUAACGGUCAGAGAG,C4A,0.2956
UUUAGUGAUAAACCGGACC,UBE2K,-1.326
UAGGUUUCAUCCUUGCGCC,GALNT6,-0.6197
UCUUUAUCAGGACAAAUCA,RPL23AP25,0.9233
UUUGGUGUCGUUGUUCCAC,EMP3,1.097
UCAUUGCACACGUGGACGG,CERCAM,0.1104
UUUUUAUCCACGGGCAUCA,CRISPLD2,0.1036
UCGGUAAUAAGGGUCCAGC,MTMR3,-0.1417
UCUUGUUCAAUAAUUCUUG,GMCL1,0.1841
UCACCGACAACAGUUGAUC,LIN7B,-0.1797
UUUGUUGGGAUACACGAUG,TRPA1,-1.484
UCCUGAUAAAAUAUGAUAC,NIPAL2,1.039
UCUGUUGGUCGUGUUGUUC,PRKD2,0.3637
UUUUCUGUGAGAGGGAAGU,PPM1N,-0.6038
UUGGAUAAAAGUGUCAACA,ANAPC11,-0.6634
UCGGAAAUCAAGCCUAAGC,SLC30A7,-0.6046
UUACAUGCUUCCGAAGUGC,LOC729950,-0.2517
UUUCUUAUGAUUAUUCCAG,EDN1,0.0648
UGAACUAACAGGGCUGAAU,ZNF701,0.7538
UGACAAACAAGCAGCGGCC,SLC13A3,1.078
ACAUAGGAAACUACAAUGC,OR14K1,0.226
UCGCUUGAGAUGGAAGUGG,GABRA3,-0.9207
UUCAUUGAUGUGGAUGACA,EPOR,-0.402
UAUGGGACAGGUUCAACUU,LRCOL1,-0.3641
UCAUUAGUUACCACCAGGG,LRRC36,0.1153
UUAUCGCCUGUUAGCAUCC,ATP9B,0.4707
ACAGUGACGAAAUAACUGC,NDUFA8,0.1204
UUGGUUGUGAGCGAUGAGC,ERBB2,-0.486
UAGAGCUUGAAGGCAAAGU,SERPINA13P,-0.003018
UAUCUUGAUGUGGAUGUAG,DNAJA3,0.1536
UUGGUGUCUCUUGUGAACU,FLG2,0.5004
UACAUAGAGAACACCCUCU,SNCA,-0.07297
UACCAGACAUUGAUUCAUG,PLAUR,-0.138
AAAAGCACGACCAAAGUUU,CHL1-AS2,0.8023
UUUGAGUCAUACAAGAUGG,ELMO1,-0.3432
UUCUCGAUGUCGAUGAGCC,PDAP1,0.4185
AUCCUUCUUAGAGACAUUG,STARD8,0.8145
AAUGAGAUCACUACGAAGG,BAZ1B,-1.166
AUCCACAUAGCCUUGAUCC,CYB5R1,0.004799
UUGUCUCGAAGCAUCUUUC,TUBGCP2,0.7708